Experimental data as given in PMC7576246.
Results are given in words; binding and its absence hold for the method and conditions named. Binding seen in cells or lysates may run through a third protein. Some binding calls cover weakened binding; strength is not graded here. Sequences can lack the tags named with a protein.

The chains behind the UniProt entries cited, without tags or fusion partners. Residues count along the entry.
UniProt P02545, residues 1-646: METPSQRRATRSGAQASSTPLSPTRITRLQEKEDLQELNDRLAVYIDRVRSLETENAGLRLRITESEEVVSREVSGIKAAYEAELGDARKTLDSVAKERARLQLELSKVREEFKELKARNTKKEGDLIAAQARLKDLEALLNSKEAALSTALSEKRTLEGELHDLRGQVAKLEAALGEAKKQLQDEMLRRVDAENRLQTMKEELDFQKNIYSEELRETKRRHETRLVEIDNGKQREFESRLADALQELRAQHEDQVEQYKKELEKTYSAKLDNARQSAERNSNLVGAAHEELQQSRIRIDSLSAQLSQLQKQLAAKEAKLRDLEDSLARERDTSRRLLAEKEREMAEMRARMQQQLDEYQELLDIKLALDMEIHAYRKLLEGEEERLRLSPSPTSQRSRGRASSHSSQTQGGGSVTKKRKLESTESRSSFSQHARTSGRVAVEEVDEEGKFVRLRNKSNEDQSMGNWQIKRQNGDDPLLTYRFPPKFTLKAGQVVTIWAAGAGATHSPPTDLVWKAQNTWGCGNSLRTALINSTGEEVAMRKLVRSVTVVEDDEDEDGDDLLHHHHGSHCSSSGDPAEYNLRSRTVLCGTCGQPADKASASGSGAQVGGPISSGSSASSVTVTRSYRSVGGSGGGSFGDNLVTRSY
UniProt Q86U44: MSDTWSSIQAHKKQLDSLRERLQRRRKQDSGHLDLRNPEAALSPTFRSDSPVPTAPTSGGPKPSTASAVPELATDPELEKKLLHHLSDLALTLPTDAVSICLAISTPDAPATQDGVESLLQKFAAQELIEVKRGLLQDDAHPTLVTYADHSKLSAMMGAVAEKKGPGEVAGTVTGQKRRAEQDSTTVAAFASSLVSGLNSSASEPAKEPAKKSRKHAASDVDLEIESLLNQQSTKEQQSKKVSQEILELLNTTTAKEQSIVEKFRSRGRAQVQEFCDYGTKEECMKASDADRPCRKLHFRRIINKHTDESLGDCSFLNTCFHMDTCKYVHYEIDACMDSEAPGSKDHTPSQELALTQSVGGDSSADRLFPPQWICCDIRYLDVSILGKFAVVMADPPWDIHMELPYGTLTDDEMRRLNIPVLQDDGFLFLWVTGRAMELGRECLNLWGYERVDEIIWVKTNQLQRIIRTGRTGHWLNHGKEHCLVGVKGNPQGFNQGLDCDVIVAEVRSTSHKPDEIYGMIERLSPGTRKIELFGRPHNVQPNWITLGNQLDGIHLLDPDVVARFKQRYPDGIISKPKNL

Tests used:
FLAG-Lamin A = FLAG-Lamin A (UniProt P02545); test: co-IP; HEK293 cells overexpressing FLAG-Lamin A with HA-METTL14 or HA-METTL3; anti-FLAG immunoprecipitates blotted; lysis buffer 20 mM Tris-HCl pH 7.5, 300 mM NaCl, 10% glycerol, 0.1 mM EDTA, 0.1% NP-40; 4°C overnight
FLAG-SC35 = target: T1, FLAG-SC35 (UniProt Q01130); test: co-IP; FLAG-SC35 with HA-METTL14 in the presence of co-expressed Lamin A, prelamin A or Progerin; cells not given; lysis buffer 20 mM Tris-HCl pH 7.5, 300 mM NaCl, 10% glycerol, 0.1 mM EDTA, 0.1% NP-40
T1 sequence: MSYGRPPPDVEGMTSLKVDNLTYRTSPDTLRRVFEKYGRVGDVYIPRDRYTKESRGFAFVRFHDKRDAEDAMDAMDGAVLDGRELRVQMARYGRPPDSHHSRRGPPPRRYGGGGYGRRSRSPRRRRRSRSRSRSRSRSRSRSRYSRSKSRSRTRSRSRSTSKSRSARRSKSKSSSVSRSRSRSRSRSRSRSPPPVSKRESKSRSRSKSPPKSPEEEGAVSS

HA-METTL3 (from UniProt Q86U44 1-580)
binding (FLAG-Lamin A): binds

B1: HA-METTL14 (protein, UniProt Q9HCE5 1-456)
chain: MDSRLQEIRERQKLRRQLLAQQLGAESADSIGAVLNSKDEQREIAETRETCRASYDTSAPNAKRKYLDEGETDEDKMEEYKDELEMQQDEENLPYEEEIYKDSSTFLKGTQSLNPHNDYCQHFVDTGHRPQNFIRDVGLADRFEEYPKLRELIRLKDELIAKSNTPPMYLQADIEAFDIRELTPKFDVILLEPPLEEYYRETGITANEKCWTWDDIMKLEIDEIAAPRSFIFLWCGSGEGLDLGRVCLRKWGYRRCEDICWIKTNKNNPGKTKTLDPKAVFQRTKEHCLMGIKGTVKRSTDGDFIHANVDIDLIITEEPEIGNIEKPVEIFHIIEHFCLGRRRLHLFGRDSTIRPGWLTVGPTLTNSNYNAETYASYFSAPNSYLTGCTEEIERLRPKSPPPKSKSDRGGGAPRGGGRGGTSAGRGRERNRSNFRGERGGFRGGRGGAHRGGFPPR
binding (FLAG-SC35): binds | binding (FLAG-Lamin A): binds
